# Drug screen on melanoma cell lines: cell count

Data from the primary screen of doi:10.1371/journal.pone.0140310, rounded.

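Human melanoma cells were exposed to two drugs together for 72 h in 1,536-well plates and read by automated microscopy after fixing and staining. Each value is the count of nuclei relative to DMSO-treated wells, in %, so that 100 equals the control. Concentrations were fixed for each drug; these are the higher of two levels. The file gives one value for each pair and line, without errors, so small differences may be noise.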 An unselected part of the screen is shown.

Every entry is a combination with SNS-032 at 50 nM: CC(C)(C)c1cnc(CSc2cnc(NC(=O)C3CCNCC3)s2)o1

{"second drug": "CS(=O)(=O)c1ccc(C(=O)Nc2ccc(Cl)c(-c3ccccn3)c2)c(Cl)c1 at 5000 nM", "COLO 800": 76.3, "WM3619": 95.4, "C32": 80.4, "WM451Lu": 63.9, "COLO 829": 105, "COLO 792": 103}
{"second drug": "C[C@@H]1CCN(C(=O)CC#N)C[C@@H]1N(C)c1ncnc2[nH]ccc12 at 5000 nM", "COLO 800": 50.3, "WM3619": 69.4, "C32": 81.0, "WM451Lu": 66.3, "COLO 829": 87.0, "COLO 792": 83.1}
{"second drug": "Nc1ncn([C@H]2C[C@H](O)[C@@H](CO)O2)c(=O)n1 at 500 nM", "COLO 800": 59.6, "WM3619": 64.1, "C32": 71.1, "WM451Lu": 49.5, "COLO 829": 75.6, "COLO 792": 80.5}
{"second drug": "COc1ccc2c(c1)CCC1C2CCC2(C)C(NCCCCCCN3C(=O)C=CC3=O)CCC12 (centres undefined) at 2000 nM", "COLO 800": 121, "WM3619": 51.8, "C32": 84.0, "WM451Lu": 118, "COLO 829": 121, "COLO 792": 99.8}
{"second drug": "C#Cc1cccc(Nc2ncnc3cc(OCCOC)c(OCCOC)cc23)c1 at 4000 nM", "COLO 800": 66.2, "WM3619": 103, "C32": 84.5, "WM451Lu": 93.2, "COLO 829": 74.8, "COLO 792": 75.9}
{"second drug": "N.N.[Cl][Pt][Cl] at 8000 nM", "COLO 800": 85.7, "WM3619": 104, "C32": 78.6, "WM451Lu": 71.1, "COLO 829": 82.9, "COLO 792": 86.0}
{"second drug": "Clc1ccc(Nc2nnc(Cc3ccncc3)c3ccccc23)cc1 at 10000 nM", "COLO 800": 41.7, "WM3619": 34.7, "C32": 65.2, "WM451Lu": 71.1, "COLO 829": 62.8, "COLO 792": 48.8}
{"second drug": "Cc1cn(-c2cc(NC(=O)c3ccc(C)c(Nc4nccc(-c5cccnc5)n4)c3)cc(C(F)(F)F)c2)cn1 at 1000 nM", "COLO 800": 63.8, "WM3619": 86.6, "C32": 100, "WM451Lu": 92.7, "COLO 829": 123, "COLO 792": 83.7}
{"second drug": "N#Cc1c(O)c2c(-c3ccc(-c4ccccc4O)cc3)csc2[nH]c1=O at 10000 nM", "COLO 800": 79.3, "WM3619": 77.6, "C32": 97.5, "WM451Lu": 59.0, "COLO 829": 94.2, "COLO 792": 101}
{"second drug": "Cc1cc([N+](=O)[O-])ccc1NS(=O)(=O)c1cc(Cl)ccc1Cl at 5000 nM", "COLO 800": 68.9, "WM3619": 48.9, "C32": 92.4, "WM451Lu": 63.7, "COLO 829": 86.7, "COLO 792": 73.1}
{"second drug": "COc1cc(N2CCC(N3CCN(C)CC3)CC2)ccc1Nc1ncc(Cl)c(Nc2ccccc2S(=O)(=O)C(C)C)n1 at 400 nM", "COLO 800": 44.7, "WM3619": 70.5, "C32": 54.6, "WM451Lu": 57.1, "COLO 829": 75.0, "COLO 792": 77.8}
{"second drug": "CC(C)C[C@H](NC(=O)[C@H](Cc1ccccc1)NC(=O)c1cnccn1)B(O)O at 5 nM", "COLO 800": 57.5, "WM3619": 4.2, "C32": 11.8, "WM451Lu": 21.6, "COLO 829": 7.2, "COLO 792": 35.1}
{"second drug": "NC(=O)Nc1cc(-c2cccc(F)c2)sc1C(=O)N[C@H]1CCCNC1 at 100 nM", "COLO 800": 31.3, "WM3619": 50.1, "C32": 71.8, "WM451Lu": 65.6, "COLO 829": 83.2, "COLO 792": 62.3}
{"second drug": "COc1ccc(-c2ccc3c(N4CCOCC4)nc(N4C[C@@H](C)O[C@@H](C)C4)nc3n2)cc1CO at 100 nM", "COLO 800": 73.0, "WM3619": 54.8, "C32": 76.1, "WM451Lu": 64.6, "COLO 829": 74.9, "COLO 792": 72.7}
{"second drug": "Cn1nnc2c(C(N)=O)ncn2c1=O at 10000 nM", "COLO 800": 84.6, "WM3619": 63.4, "C32": 87.7, "WM451Lu": 83.3, "COLO 829": 93.3, "COLO 792": 65.1}
{"second drug": "CC(C)CCN1c2nc(Nc3cc(F)c(O)c(F)c3)ncc2N(C)C(=O)C1C (centres undefined) at 1000 nM", "COLO 800": 84.4, "WM3619": 55.1, "C32": 87.2, "WM451Lu": 47.5, "COLO 829": 108, "COLO 792": 79.1}
{"second drug": "C[C@]1(c2nc3c(C(N)=O)cccc3[nH]2)CCCN1 at 7000 nM", "COLO 800": 26.6, "WM3619": 93.2, "C32": 93.7, "WM451Lu": 52.3, "COLO 829": 95.0, "COLO 792": 74.7}
{"second drug": "CC(=O)O[C@@]12CO[C@@H]1C[C@H](O)[C@@]1(C)C(=O)[C@H](O)C3=C(C)[C@@H](OC(=O)[C@H](O)[C@@H](NC(=O)OC(C)(C)C)c4ccccc4)C[C@@](O)([C@@H](OC(=O)c4ccccc4)[C@H]21)C3(C)C at 0.5 nM", "COLO 800": 44.0, "WM3619": 45.9, "C32": 58.6, "WM451Lu": 34.6, "COLO 829": 37.8, "COLO 792": 21.8}
{"second drug": "Cc1cc(Nc2cc(N3CCN(C)CC3)nc(/C=C/c3ccccc3)n2)n[nH]1 at 200 nM", "COLO 800": 47.4, "WM3619": 65.6, "C32": 77.1, "WM451Lu": 84.0, "COLO 829": 71.3, "COLO 792": 62.5}
{"second drug": "C/C(O)=C(\\C#N)C(=O)Nc1cc(Br)ccc1Br at 10000 nM", "COLO 800": 56.2, "WM3619": 87.0, "C32": 81.6, "WM451Lu": 73.7, "COLO 829": 100, "COLO 792": 85.4}
{"second drug": "CCc1ccc(CCOc2ccc(CC3SC(=O)NC3=O)cc2)nc1 (centres undefined) at 10000 nM", "COLO 800": 66.9, "WM3619": 68.2, "C32": 90.5, "WM451Lu": 68.9, "COLO 829": 108, "COLO 792": 95.7}
{"second drug": "C[C@@H](Oc1cc(-c2cnn(C3CCNCC3)c2)cnc1N)c1c(Cl)ccc(F)c1Cl at 1000 nM", "COLO 800": 63.5, "WM3619": 78.0, "C32": 68.2, "WM451Lu": 57.9, "COLO 829": 89.9, "COLO 792": 80.6}

Once more, the final 2:

- CCc1ccc(CCOc2ccc(CC3SC(=O)NC3=O)cc2)nc1 (centres undefined) at 10000 nM | COLO 800: 66.9; WM3619: 68.2; C32: 90.5; WM451Lu: 68.9; COLO 829: 108; COLO 792: 95.7
- C[C@@H](Oc1cc(-c2cnn(C3CCNCC3)c2)cnc1N)c1c(Cl)ccc(F)c1Cl at 1000 nM | COLO 800: 63.5; WM3619: 78.0; C32: 68.2; WM451Lu: 57.9; COLO 829: 89.9; COLO 792: 80.6